The supplement of paper PMC3047530
The list shows a part of the results. Many values rest on one well or one pass, so single values are uncertain.

test system: Geomyces destructans; experiment: growth inhibition relative to DMSO control; higher = stronger growth inhibition; conditions: 10 µM; 15 °C; incubation time 10 days

Compound | growth inhibition
NC1(C(=O)O)CCC1 | -38.6%
CC(CN1c2ccccc2Sc2cccnc21)N(C)C (stereo not given) | -3.21%
CCC1(O)CC(OC2CC(N(C)C)C(OC3CC(O)C(OC4CCC(=O)C(C)O4)C(C)O3)C(C)O2)c2c(cc3c(c2O)C(=O)c2c(O)cccc2C3=O)C1C(=O)OC (stereo not given) | -12.7%
CC(C)(O)[C@H]1CC[C@]2(C)[C@H]3CC[C@@H]4[C@@]5(C)CCCC(C)(C)[C@@H]5[C@@H](O)C[C@@]4(C)[C@]3(C)CC[C@@H]12 | -4.24%
COc1cccc(OC)c1OCCNCC1COc2ccccc2O1 (stereo not given) | -37%
CCCCC1=NC2(CCCC2)C(=O)N1Cc1ccc(-c2ccccc2-c2nnn[nH]2)cc1 | -6.39%
CC[C@H]1OC(=O)[C@H](C)[C@@H](O[C@H]2C[C@@](C)(OC)[C@@H](O)[C@H](C)O2)[C@H](C)[C@@H](O[C@@H]2O[C@H](C)C[C@H](N(C)C)[C@H]2O)[C@](C)(OC)C[C@@H](C)C(=O)[C@H](C)[C@@H](O)[C@]1(C)O | -13.4%
CCCCOC(=O)c1ccc(N)cc1 | -11%
CC1=CC2C(C(C)C)CCC(C)(O)C2CC1 (stereo not given) | -7.2%
C=NC(C(=O)NC1C(=O)N2C1SC(C)(C)C2C(=O)O)c1ccccc1 (stereo not given) | -35.5%
CC(C)COCC(CN(Cc1ccccc1)c1ccccc1)N1CCCC1 (stereo not given) | -6.3%
CCC(CCC(C)C1CCC2C3CCC4CC(O)CCC4(C)C3CCC12C)C(C)C (stereo not given) | 1.15%
CCOc1ccc2c(c1)C(C)=CC(C)(C)N2 | -7.38%
C#CCCCCCCCCCCCC(O)CC(O)CO.C=CCCCCCCCCCCCC(O)CC(O)CO (stereo not given) | 2.6%
CCOC(=O)[C@H](CCc1ccccc1)N[C@@H](C)C(=O)N1[C@H](C(=O)O)C[C@@H]2CCC[C@@H]21 | -24.2%
NS(=O)(=O)c1cc2c(cc1Cl)N=CNS2(=O)=O | -4.74%
O=c1c(O)c(-c2ccc(O)c(O)c2)oc2cc(O)ccc12 | -38.6%
CN[C@H](CC(C)C)C(=O)N[C@H]1C(=O)N[C@@H](CC(N)=O)C(=O)N[C@H]2C(=O)N[C@H]3C(=O)N[C@H](C(=O)N[C@H](C(=O)O)c4cc(O)cc(O)c4-c4cc3ccc4O)[C@H](O)c3ccc(c(Cl)c3)Oc3cc2cc(c3O[C@@H]2O[C@H](CO)[C@@H](O)[C@H](O)[C@H]2O[C@H]2C[C@](C)(N)[C@H](O)[C@H](C)O2)Oc2ccc(cc2Cl)[C@H]1O | -16.4%
O=C(O)c1cc2cc(Cl)ccc2[nH]1 | -26.1%
Cc1cc(C2CCCCC2)n(O)c(=O)c1 | 85.7%

Compound | growth inhibition
CC(=O)Oc1cc(C)c2c(c1C(OC(C)=O)OC(C)=O)Oc1c(c(C)c(OC(C)=O)c3c1C(OC(C)=O)OC3=O)OC2=O (stereo not given) | -8.34%
COc1ccc2ccc(=O)oc2c1 | 2.91%
NS(=O)(=O)c1cc(C(=O)O)c(NCc2ccco2)cc1Cl | 18.9%
Cc1c(C(N)=O)cc([N+](=O)[O-])cc1[N+](=O)[O-] | -8.62%
C=C[C@H]1CN2CC[C@H]1C[C@@H]2[C@@H](O)c1ccnc2ccc(OC)cc12 | -19.6%
C[C@]12CC[C@H]3C(=CCc4cc(O)ccc43)[C@@H]1CCC2=O | 13.1%
N=C(N)N | -7.71%
CN1C(C(=O)Nc2ccccn2)=C(O)c2sccc2S1(=O)=O | -20.5%
CC(=O)Oc1ccc2c(c1)CC[C@@H]1[C@@H]2CC[C@]2(C)[C@@H](OC(C)=O)CC[C@@H]12 | -9.58%
COc1ccc(C2C(=O)c3ccccc3C2=O)cc1 | 5.28%
Cc1cccc(C)c1NC(=O)C1CCCCN1C (stereo not given) | -26.6%
COC(=O)C[C@H]1C(C)(C)C(=O)[C@@H]2CC3=C(CC[C@]4(C)C3=CC(=O)O[C@H]4c3ccoc3)[C@@]1(C)C2=O | -3.33%
O=C(Nc1ccccc1)c1ccccc1O | 5.44%
CCC(=O)OC1[C@@H]2CC3=C4CC(=O)O[C@@H](c5ccoc5)[C@]4(C)CCC3[C@@](C)(C2=O)[C@@H](CC(=O)OC)C1(C)C (stereo not given in full) | -2.7%
CN(C)CCC=C1c2ccccc2CCc2ccccc21 | -28.2%
NC(N)=NCCC[C@H](N[C@H](CCC(=O)O)C(=O)O)C(=O)O | -13.1%
CS(=O)(=O)c1ccc(C2=C(c3ccccc3)C(=O)OC2)cc1 | -14.3%
CCC/C=C1\OC(=O)C2=C1CCC=C2 | -1.21%
COc1ccc2c(c1OC)OC[C@@H](c1ccc(OC)c(OC)c1OC)C2 | -16.6%
COc1cc(Cc2cnc(N)nc2N)cc(OC)c1OC | -29.7%

Compound | growth inhibition
CCN(CC)CCOC(=O)C(c1ccccc1)C1CCCCC1 (stereo not given) | -1.27%
C=CCc1ccc(OC(=O)c2ccccc2)c(OC)c1 | -7.04%
CCCCC(CC)CN1CN(CC(CC)CCCC)CC(C)(N)C1 (stereo not given) | -32.2%
COc1cccc2c1CCC1=CC(=O)CC[C@@]12C | 3.17%
CC(=O)O[C@H]1CC[C@]2(C)C3C(=O)[C@@H](OC(C)=O)[C@@]4(C)C(C[C@@H]5O[C@]6(CCC(C)CO6)[C@@H](C)[C@@H]54)C3CC[C@H]2C1 (stereo not given in full) | -1.75%
CO[C@@]1(NC(=O)Cc2cccs2)C(=O)N2C(C(=O)O)=C(COC(N)=O)CS[C@@H]21 | -5.74%
CC[C@H](CC[C@@H](C)[C@H]1CC[C@H]2[C@@H]3CC=C4C[C@@H](O)CC[C@]4(C)[C@H]3CC[C@]12C)C(C)C [beta-SITOSTEROL] | 16.6%
CCCN(CCC)C(=O)C(CCC(=O)O)NC(=O)c1ccccc1 (stereo not given) | -12.4%
CN1CCC(=C2c3ccccc3CC(=O)c3sccc32)CC1 | -37.1%
CC(=O)Oc1c(Cl)c(C)c2c(c1Cl)OC(=O)c1c(C)c(Cl)c(OC(C)=O)c(Cl)c1O2 | 2.03%
CC(=O)NCCc1c[nH]c2ccc(O)cc12 | -11.2%
C[C@]12CCC3c4ccc(OC(=O)c5ccccc5)cc4CCC3C1CCC2=O (stereo not given in full) | 11%
Cn1ccnc1S | 8.18%
Nc1c(Br)cc(Br)cc1CN[C@H]1CC[C@H](O)CC1 | -7.82%
Oc1ccc(Cl)c2cccnc12 | 88.7%
COc1cc(-c2coc3cc(OC)c(OC)c(OC)c3c2=O)cc(OC)c1OC | 6.63%
CC(C)(Sc1cc(C(C)(C)C)c(O)c(C(C)(C)C)c1)Sc1cc(C(C)(C)C)c(O)c(C(C)(C)C)c1 | -0.764%
CN1CCCN=C1COC(=O)C(O)(c1ccccc1)C1CCCCC1 (stereo not given) | -13.8%
CC(C)(Oc1ccc(Cl)cc1)C(=O)O | -6.04%
COc1ccc(-c2c(O)c3c(OC)c4c(cc3oc2=O)OC(C)(C)C=C4)cc1 | 4.96%

Looked up above.
In growth inhibition, NC1(C(=O)O)CCC1 shows -38.6%
In growth inhibition, Cc1cccc(C)c1NC(=O)C1CCCCN1C (stereo not given) shows -26.6%
In growth inhibition, CCC(=O)OC1[C@@H]2CC3=C4CC(=O)O[C@@H](c5ccoc5)[C@]4(C)CCC3[C@@](C)(C2=O)[C@@H](CC(=O)OC)C1(C)C (stereo not given in full) shows -2.7%
In growth inhibition, Cn1ccnc1S shows 8.18%
